# According to US20250051474A1, “ANTI-CD97 ANTIBODIES AND ANTIBODY-DRUG CONJUGATES” (New York University, priority 2023, published 2025):
# Numbering of substitutions follows the chain as printed.
# B1: 2V10: anti-CD97 antibody clone, VL SEQ ID NO: 63, VH SEQ ID NO: 64 (antibody, V domains shown)
# VH: EVQLVESGGGLVQPGGSLRLSCAASGFTISSSSIHWVRQAPGKGLEWVAYIYPSSGSTSYADSVKGRFTISADTSKNTAYLQMNSLRAEDTAVYYCARPWYYSTFNKKWWDYQGLDYWGQGTLVTVSS
# VL: DIQMTQSPSSLSASVGDRVTITCRASQSVSSAVAWYQQKPGKAPKLLIYSASSLYSGVPSRFSGSRSGTDFTLTISSLQPEDFATYYCQQSWWDPITFGQGTKVEIKRTV
# B2: C27: anti-CD97 antibody clone, VL SEQ ID NO: 21, VH SEQ ID NO: 46 (antibody, V domains shown)
# VH: EVQLVESGGGLVQPGGSLRLSCAASGFTLSSSSIHWVRQAPGKGLEWVASIYSYYGSTYYADSVKGRFTISADTSKNTAYLQMNSLRAEDTAVYYCARYRGNMYYWESWYGSYWALDYWGQGTLVTVSS
# VL: B1 VL with W92S, W93S, D94S, P95L
# System: truncation mutants of CD97
# Assay: Epitope mapping using ExpiCHO cells expressing truncation mutants of CD97
# Format: binding, human
# Settings: IgG1 LALA-PG, EGF-like domains deleted from the N-terminus
row,Molecule,epitope (CD97 domain bound)
1,B1,EGF1
2,B2,EGF3
